No constants are given. Whether binding was seen depends on the method and setting. Binding seen in cells or lysates may run through a third protein. Here binding means that the protein was enriched with, or labelled near, the bait; the list need not be complete. Where a sequence is shown, tags or fusion partners need not be part of it.
Tests used:
FLAG-NPRL2-GFP (human) = target: T1, FLAG-NPRL2-GFP (human) (UniProt Q8WTW4); assay: affinity purification with mass spectrometry; in-house polyclonal anti-GFP antibodies coupled to Dynabeads; clarified extracts of cryo-milled HEK293 cells stably expressing FLAG-NPRL2-GFP, NPRL3-GFP or GFP; 40 mM HEPES, pH 7.4, 2.5 mM MgCl2, 1% Triton X-100; three technical replicates; label-free quantification
T1 sequence: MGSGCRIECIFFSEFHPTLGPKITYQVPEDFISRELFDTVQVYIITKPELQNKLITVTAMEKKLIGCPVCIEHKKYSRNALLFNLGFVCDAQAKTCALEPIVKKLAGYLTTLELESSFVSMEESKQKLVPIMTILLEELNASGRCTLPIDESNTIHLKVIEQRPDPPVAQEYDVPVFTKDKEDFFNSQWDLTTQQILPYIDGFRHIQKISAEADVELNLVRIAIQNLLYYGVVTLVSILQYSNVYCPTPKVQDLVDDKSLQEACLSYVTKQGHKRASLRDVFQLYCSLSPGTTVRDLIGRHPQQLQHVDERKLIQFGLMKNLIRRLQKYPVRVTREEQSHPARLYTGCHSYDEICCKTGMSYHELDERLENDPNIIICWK

Protein sequences, listed by entry. Tags and fused reporters are not part of them. Residues count along the entry.
UniProt O75140: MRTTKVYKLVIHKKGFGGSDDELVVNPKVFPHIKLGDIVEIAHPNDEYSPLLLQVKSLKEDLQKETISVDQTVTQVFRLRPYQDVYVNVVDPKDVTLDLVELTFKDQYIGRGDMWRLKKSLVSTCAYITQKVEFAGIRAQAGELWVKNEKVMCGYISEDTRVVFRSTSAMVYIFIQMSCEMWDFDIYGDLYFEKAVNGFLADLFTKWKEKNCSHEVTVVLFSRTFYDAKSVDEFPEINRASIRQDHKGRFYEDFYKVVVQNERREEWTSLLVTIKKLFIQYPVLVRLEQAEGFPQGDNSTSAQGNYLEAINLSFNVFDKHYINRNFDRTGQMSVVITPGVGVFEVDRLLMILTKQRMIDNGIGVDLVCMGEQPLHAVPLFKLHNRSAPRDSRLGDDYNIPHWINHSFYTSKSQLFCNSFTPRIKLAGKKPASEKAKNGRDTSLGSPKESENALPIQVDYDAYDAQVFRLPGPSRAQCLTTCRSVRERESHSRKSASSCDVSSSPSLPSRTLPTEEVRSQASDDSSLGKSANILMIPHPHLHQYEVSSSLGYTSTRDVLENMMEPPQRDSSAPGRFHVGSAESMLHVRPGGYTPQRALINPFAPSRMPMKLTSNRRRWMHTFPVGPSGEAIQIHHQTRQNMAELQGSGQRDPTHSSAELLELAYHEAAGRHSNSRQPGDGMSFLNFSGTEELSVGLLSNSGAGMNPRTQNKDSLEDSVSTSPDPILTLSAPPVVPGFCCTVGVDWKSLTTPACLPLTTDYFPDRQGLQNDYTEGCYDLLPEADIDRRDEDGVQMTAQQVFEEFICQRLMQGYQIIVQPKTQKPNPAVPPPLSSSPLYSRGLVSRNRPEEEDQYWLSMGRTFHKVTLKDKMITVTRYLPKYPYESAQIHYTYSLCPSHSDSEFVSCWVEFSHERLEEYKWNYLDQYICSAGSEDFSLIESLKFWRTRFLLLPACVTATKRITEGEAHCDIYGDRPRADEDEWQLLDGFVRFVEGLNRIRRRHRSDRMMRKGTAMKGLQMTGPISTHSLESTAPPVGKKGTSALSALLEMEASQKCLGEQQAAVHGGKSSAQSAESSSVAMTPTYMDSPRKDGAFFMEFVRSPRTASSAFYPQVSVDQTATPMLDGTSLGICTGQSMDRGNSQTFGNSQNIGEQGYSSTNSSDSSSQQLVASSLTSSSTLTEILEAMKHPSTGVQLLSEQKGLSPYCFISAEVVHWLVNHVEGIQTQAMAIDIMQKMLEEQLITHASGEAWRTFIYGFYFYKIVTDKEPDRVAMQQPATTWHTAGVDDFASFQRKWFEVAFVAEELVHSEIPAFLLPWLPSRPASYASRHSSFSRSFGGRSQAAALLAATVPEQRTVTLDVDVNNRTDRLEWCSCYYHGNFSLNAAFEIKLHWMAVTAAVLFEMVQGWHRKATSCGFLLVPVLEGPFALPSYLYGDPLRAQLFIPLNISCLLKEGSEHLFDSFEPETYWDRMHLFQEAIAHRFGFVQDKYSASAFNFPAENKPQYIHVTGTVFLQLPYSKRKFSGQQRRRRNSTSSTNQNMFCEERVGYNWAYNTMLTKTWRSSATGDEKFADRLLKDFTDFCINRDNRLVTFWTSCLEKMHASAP
UniProt O95831, residues 102-613: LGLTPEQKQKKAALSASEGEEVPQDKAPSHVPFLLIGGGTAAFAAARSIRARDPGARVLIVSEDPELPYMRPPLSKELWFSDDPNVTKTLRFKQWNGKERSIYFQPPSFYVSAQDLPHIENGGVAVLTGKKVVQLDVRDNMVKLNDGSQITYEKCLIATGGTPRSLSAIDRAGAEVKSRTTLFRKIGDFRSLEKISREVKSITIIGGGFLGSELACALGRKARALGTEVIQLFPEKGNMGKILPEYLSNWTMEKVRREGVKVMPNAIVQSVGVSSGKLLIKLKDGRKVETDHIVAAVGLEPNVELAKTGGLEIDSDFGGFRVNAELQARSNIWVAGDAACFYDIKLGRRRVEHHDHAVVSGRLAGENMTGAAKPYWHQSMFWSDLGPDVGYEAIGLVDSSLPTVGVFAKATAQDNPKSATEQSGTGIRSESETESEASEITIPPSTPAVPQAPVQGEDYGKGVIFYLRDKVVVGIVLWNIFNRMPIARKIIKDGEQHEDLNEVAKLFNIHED

NPRL3-GFP = target: T2, NPRL3-GFP (UniProt Q12980); assay: as above
T2 sequence: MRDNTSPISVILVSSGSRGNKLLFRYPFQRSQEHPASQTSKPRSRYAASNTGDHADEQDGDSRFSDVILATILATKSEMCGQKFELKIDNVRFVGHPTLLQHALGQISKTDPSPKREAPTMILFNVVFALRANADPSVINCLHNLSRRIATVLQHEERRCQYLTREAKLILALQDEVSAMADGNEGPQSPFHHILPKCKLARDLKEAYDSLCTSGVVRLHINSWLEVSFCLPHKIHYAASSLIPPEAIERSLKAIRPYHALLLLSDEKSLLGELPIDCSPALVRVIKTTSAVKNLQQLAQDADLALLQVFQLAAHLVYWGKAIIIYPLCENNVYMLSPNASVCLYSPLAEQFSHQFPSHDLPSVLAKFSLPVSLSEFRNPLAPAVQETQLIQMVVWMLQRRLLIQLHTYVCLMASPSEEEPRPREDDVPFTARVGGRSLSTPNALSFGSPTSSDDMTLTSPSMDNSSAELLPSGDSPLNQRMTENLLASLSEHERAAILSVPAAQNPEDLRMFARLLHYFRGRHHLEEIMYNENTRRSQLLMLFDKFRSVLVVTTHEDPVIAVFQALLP

binding (FLAG-NPRL2-GFP (human)) | binding (NPRL3-GFP) | Substance
binds |  | DEPDC5 (from UniProt O75140 1-1603)
binds | binds | apoptosis-inducing factor (AIF) (from UniProt O95831 102-613)

— publication PMC5681675
